The target in test [1] is T1, NEK9 (source not told: hit of the mass spectrometry analysis; partner in the co-IPs of Fig. 3G, H) (UniProt Q8TD19).
T1 sequence: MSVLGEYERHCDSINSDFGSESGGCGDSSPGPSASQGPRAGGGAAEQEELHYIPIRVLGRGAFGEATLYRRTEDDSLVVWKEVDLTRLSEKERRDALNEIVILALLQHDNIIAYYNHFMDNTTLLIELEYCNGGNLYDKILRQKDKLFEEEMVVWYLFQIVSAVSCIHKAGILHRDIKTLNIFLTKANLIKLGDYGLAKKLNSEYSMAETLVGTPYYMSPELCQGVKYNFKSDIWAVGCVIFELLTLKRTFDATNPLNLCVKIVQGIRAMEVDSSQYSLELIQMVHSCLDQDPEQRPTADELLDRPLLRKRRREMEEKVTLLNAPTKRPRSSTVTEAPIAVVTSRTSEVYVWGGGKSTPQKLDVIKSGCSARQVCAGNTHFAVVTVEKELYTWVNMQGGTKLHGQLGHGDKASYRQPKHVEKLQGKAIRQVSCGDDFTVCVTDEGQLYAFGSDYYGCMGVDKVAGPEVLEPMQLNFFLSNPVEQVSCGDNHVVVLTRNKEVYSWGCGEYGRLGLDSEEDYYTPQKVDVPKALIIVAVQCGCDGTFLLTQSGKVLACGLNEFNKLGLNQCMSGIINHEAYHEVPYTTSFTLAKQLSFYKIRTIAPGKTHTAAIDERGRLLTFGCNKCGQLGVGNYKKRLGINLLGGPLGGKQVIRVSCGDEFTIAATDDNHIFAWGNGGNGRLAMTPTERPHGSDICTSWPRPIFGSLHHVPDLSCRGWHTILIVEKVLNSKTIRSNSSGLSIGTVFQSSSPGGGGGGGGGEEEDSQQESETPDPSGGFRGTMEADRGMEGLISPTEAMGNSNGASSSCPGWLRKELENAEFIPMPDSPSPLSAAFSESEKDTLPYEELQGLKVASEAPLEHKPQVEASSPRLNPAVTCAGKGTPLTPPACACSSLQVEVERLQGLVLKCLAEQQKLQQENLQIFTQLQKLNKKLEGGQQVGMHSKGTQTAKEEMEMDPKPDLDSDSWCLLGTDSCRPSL
The experiment in a line: co-IP; NEK9 with TRIM28 or CTTN in AGS and MKN45 cells.

Amino acid sequences for entries named in this document (tags omitted). Residues count along the entry.
UniProt Q9Y6N7, residues 26-1651: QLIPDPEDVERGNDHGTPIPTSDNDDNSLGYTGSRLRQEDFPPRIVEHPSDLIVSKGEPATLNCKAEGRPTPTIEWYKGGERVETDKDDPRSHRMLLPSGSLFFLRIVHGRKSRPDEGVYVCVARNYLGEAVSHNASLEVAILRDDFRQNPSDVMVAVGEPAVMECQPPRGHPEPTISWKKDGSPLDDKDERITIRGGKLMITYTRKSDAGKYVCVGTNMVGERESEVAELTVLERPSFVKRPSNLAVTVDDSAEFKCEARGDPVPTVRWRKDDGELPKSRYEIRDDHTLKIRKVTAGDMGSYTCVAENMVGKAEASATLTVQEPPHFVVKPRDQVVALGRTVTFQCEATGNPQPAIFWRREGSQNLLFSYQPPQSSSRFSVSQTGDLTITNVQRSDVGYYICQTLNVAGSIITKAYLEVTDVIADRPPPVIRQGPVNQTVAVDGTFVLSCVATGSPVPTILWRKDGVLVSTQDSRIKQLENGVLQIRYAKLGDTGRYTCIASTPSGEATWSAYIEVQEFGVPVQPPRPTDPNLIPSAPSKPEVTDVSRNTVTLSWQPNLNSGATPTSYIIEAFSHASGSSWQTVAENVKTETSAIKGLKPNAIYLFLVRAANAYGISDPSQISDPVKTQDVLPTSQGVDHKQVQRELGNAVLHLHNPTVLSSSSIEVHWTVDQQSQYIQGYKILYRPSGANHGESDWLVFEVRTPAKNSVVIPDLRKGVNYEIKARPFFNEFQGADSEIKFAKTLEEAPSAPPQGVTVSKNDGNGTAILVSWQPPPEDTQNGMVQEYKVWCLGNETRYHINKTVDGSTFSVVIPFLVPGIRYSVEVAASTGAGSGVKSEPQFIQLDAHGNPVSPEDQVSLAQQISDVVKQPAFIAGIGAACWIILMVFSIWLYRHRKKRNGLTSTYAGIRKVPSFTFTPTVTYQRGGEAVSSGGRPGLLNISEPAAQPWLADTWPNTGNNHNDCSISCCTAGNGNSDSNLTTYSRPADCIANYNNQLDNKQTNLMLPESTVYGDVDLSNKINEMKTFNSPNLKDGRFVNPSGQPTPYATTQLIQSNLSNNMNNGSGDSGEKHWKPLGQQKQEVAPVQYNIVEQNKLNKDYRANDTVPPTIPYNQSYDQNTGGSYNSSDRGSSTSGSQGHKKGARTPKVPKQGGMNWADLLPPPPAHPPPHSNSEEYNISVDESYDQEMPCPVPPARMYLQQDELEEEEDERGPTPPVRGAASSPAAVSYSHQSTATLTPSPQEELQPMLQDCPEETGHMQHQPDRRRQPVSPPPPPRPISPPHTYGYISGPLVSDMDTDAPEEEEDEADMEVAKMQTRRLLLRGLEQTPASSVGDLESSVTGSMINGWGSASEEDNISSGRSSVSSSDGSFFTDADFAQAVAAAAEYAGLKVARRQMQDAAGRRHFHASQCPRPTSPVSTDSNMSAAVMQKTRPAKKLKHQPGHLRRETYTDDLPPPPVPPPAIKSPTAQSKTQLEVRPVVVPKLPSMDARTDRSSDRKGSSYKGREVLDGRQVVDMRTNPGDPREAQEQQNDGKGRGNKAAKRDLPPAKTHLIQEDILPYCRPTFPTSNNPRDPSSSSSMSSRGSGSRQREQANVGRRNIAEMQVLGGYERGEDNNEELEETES
UniProt Q14247: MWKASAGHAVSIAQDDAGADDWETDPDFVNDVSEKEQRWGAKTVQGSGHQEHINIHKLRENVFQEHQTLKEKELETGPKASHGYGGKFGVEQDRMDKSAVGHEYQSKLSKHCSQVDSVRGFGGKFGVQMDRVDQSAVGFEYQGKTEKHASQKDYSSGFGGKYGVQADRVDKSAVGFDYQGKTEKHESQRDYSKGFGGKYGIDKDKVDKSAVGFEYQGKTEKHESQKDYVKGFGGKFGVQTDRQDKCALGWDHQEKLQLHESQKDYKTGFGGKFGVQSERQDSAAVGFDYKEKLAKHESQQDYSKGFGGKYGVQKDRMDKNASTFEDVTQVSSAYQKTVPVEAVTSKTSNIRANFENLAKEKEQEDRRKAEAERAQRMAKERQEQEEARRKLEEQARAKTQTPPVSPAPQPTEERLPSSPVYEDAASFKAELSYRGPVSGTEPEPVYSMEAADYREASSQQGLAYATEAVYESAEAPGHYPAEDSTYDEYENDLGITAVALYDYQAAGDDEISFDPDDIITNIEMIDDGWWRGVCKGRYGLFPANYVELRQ
UniProt Q13263: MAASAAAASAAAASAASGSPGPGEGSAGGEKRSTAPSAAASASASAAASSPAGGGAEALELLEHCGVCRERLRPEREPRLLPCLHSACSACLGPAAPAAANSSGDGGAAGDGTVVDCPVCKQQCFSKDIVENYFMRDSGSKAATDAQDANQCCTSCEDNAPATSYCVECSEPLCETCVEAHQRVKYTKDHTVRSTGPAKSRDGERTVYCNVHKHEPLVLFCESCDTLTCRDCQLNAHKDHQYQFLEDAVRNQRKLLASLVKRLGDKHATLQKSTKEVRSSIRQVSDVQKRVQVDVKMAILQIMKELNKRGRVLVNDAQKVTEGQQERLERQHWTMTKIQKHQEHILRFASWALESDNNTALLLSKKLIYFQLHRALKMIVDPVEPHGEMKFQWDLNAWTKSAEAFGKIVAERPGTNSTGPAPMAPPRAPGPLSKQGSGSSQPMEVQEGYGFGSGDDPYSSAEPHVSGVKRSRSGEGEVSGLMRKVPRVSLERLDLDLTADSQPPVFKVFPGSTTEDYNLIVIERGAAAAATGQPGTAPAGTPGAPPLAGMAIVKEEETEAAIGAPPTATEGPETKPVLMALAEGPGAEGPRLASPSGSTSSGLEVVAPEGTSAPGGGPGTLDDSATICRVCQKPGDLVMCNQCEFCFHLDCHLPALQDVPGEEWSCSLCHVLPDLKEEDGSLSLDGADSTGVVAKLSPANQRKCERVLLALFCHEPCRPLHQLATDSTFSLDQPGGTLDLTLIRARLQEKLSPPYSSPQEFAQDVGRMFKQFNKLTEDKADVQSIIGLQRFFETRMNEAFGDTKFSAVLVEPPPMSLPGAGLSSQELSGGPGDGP

Test [2] deals with roundabout guidance receptor 1 (ROBO1), endogenous (human (endogenous in GC cells AGS, MKN45)) (UniProt Q9Y6N7). Description: co-IP; endogenous ROBO1 and NEK9 in GC cells; without or with pre-treatment with SLIT2 (100 ng/ml, 24 hours).
In test [3] the target is HA-ROBO1 (the full-length) (UniProt Q9Y6N7). Description: co-IP; GC cell lysates co-transfected with Flag-NEK9 and HA-ROBO1 (the full-length or deletion mutants).

Consider four molecules from publication PMC10344862.

No constants are given. Whether binding was seen depends on the method and setting. In cells and extracts the contact can be indirect. Some results given as binding are weak or reduced against the parent protein; the word gives no strength. For some of these results: Tags and fused reporters may be left off the sequences shown.

As to “cortactin (CTTN) (from UniProt Q14247 1-550)”, the binding entry in test [1] is recorded as “binds”.

With “tripartite motif containing 28 (TRIM28) (from UniProt Q13263 1-835)”, the binding entry in test [1] was “binds”.

B1: NEK9, endogenous (enzyme, UniProt Q8TD19 1-979)
chain: T1 sequence
On to B1, for which, in test [2], the binding result was “binds”.

B2: Flag-NEK9 (enzyme, UniProt Q8TD19 1-979)
chain: T1 sequence
B2: the binding entry in test [3] was “binds”.
